The target in experiment [1] is PD-L1 expressed on CHO-K1 cells (UniProt Q9NZQ7). Description: FACS on CHO-K1 cells expressing PD-L1, control (FIG. 5).
For experiment [2] the target is unchanged. Description: FACS on CHO-K1 cells expressing PD-L1, control (FIG. 9).

Sequences of proteins named here, by UniProt entry; tags and fusion partners are left off. Residues count along the entry.
UniProt Q9NZQ7, residues 19-290: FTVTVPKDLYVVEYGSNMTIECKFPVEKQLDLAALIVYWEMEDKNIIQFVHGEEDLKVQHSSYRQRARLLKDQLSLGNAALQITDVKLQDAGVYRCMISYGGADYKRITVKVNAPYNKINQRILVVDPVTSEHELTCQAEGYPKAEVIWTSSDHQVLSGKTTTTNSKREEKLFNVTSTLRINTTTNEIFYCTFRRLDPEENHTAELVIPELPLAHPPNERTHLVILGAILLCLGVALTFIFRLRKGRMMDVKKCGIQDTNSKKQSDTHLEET

Substitutions are numbered along the chain they refer to. These are yes or no findings as the source states them, for the method shown. Some binding calls cover weakened binding; strength is not graded here.

B1: PDL1HCv5 (antibody, human IgG1, kappa, N297A, V domains shown)
VH: EVQLVQSGAEVKKPGASVKVSCKASGYIFTGYGITWVRQAPGQGLEWMGEIFPRRVQTYYSEKFKGRVTMTADTSTSTAYMELRSLRSDDTAVYYCARDYDPYFALDYWGQGTTVTVSS
VL: DIQMTQSPSSLSASVGDRVTITCRASQDVSTAVDWYQQKPGKAPKLLIYSASYRYTGVPDRFSGSGSGTDFTFTISSLQPEDIATYYCQQHYSIPFTFGQGTKLEIKR
On to B1, for which, in experiment [1], the binding result was “binds”.

B2: PDL1HCv1 (antibody, human IgG1, kappa, N297A, V domains shown)
VH: B1 VH with A72T
VL: B1 VL
For B2, the binding entry in experiment [1] and in experiment [2] was “binds” in each case.

For the origin of these results see US20220220204A1.
